# Screen size: about 340,000 compounds; about 170 (0.05%) were called active. The inconclusive results got no clear call from the source; some entries with a clear call stand among them for comparison. Calls come from the whole dose curve; as a rule, active = well fitted inhibition curve with a large enough effect in the signal ratio, with a control signal flat (not every such curve was filed as active); inconclusive = small, poorly fitted or top-dose-only effect, or effect the other way, or a change in a side signal; inactive = flat fitted curve, though single readings scatter; the % refers to the signal ratio. A potency beside an inconclusive call is a rough fit, not a confirmed value.
# Test: qHTS Assay to Find Inhibitors of Chronic Active B-Cell Receptor Signaling;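 for activity change, negative = inhibition: plate controls were basal doxycycline-induced cells for no effect and cells given 10 µM MG132 for full effect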
# Conditions: ABC-DLBCL IkBa-CBG/CBR reporter, luminescence ratio (green luciferase fused to IkBa over red control in TMD8 lymphoma cells), 4 h; activity change, negative = inhibition: at 46.1 µM (top of the series)
# Procedure, shortened: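 TMD8 ABC-DLBCL cells carrying doxycycline-inducible green luciferase fused to IkappaBalpha plus unfused red luciferase were exposed to compounds (up to 46 uM) for 4 hrs at 37C. Activity came from the overlap-corrected green/red luminescence ratio.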
# Potency is the fitted concentration of half-maximal effect.
SMILES,"activity change, negative = inhibition",Potency
O=C(Nc1ccccc1N1CCCCC1)c1ccc(F)c(S(=O)(=O)N2CCOCC2)c1,inactive: 2.61%,–
CCC(CC)C(=O)c1c[nH]c(C(=O)O)c1,inactive: 0.586%,–
Cc1ccccc1OCCC(=O)OCC(=O)Nc1ccc(N2CCOCC2)cc1,inconclusive: -12.2%,–
Cc1ccc(NC(=O)CN(Cc2ccco2)Cc2ccccc2O)cc1C,inconclusive: 16.1%,–
O=C(Nc1ccc(F)cc1)C1CCCN1S(=O)(=O)c1ccc(Br)cc1 (centres undefined),inconclusive: 4.95%,–
CC(NC(=O)NC(=O)c1cccc([N+](=O)[O-])c1)C1CC1 (centres undefined),inconclusive: 1.16%,–
Cc1cc(N/N=C/c2ccc(O)cc2O)nc(-c2ccccc2O)n1,inconclusive: -1.71%,–
CCOC(=O)C1=C(CN2CCN(c3ccc(Cl)cc3)CC2)NC(=O)NC1c1ccc(OC)cc1 (centres undefined),inactive: -13.4%,–
COc1ccc2[nH]c(C(=O)N/N=C/c3ccccc3OC)cc2c1,inconclusive: -14.4%,–
O=C1OC(c2ccccc2)=C/C1=C/N1CCCCC1,inconclusive: 7.72%,–
CCCc1ccc(-c2ccc(F)c(N)c2)nc1,–,"inconclusive: 31.6 µM [falling, partial curve]"
CCCC(=O)NC(NC(=S)Nc1c(C)n(C)n(-c2ccccc2)c1=O)C(Cl)(Cl)Cl (centres undefined),inactive: 9.07%,–
CC1C(=O)Nc2ccc(S(=O)(=O)N3CCCCCC3)cc21 (centres undefined),inactive: 1.75%,–
Cc1ccc(NC(=O)C2SC(=Nc3ccccc3)C(C(=O)Nc3ccc(Cl)cc3)=C2N)cc1 (centres undefined),inconclusive: 1.27%,–
O=C(N/N=C/c1ccccn1)c1cc(-c2ccc(Br)s2)[nH]n1,inactive: 8.76%,–
COc1ccc(Cc2nnc(-c3ccccc3)o2)cc1,inconclusive: 11.7%,–
CCOC(=O)c1ccc(N(C(=O)CNC(=O)c2ccco2)C(C(=O)NCC2CCCO2)c2ccc(OC)c(OC)c2)cc1 (centres undefined),inactive: -8.59%,–
c1ccc(-c2ccccc2OCCN2CCCC2)cc1,inactive: -7.36%,–
CC(Oc1cccc(Cl)c1)C(=O)Nc1ccc(S(=O)(=O)N(C)C2CCN(C)CC2)cc1 (centres undefined),inactive: 2.97%,–
Cc1cccc(C)c1NC(=O)CCCSc1nc2ccccc2s1,inactive: 0.615%,–
COC(=O)c1ccc(C(=O)OC)c(NC(=O)N2c3ccccc3Sc3ccccc32)c1,inconclusive: 1.33%,–

SMILES,"activity change, negative = inhibition",Potency
COc1ccccc1-c1cc(C(F)(F)F)nc(S(=O)(=O)CCCC(=O)Nc2cccnc2Cl)n1,inconclusive: 15.9%,–
CCS(=O)(=O)N1Cc2ccccc2CC1C(=O)Nc1nc2ccccc2[nH]1 (centres undefined),–,"inconclusive: 12.6 µM [falling, partial curve]"
O=C(N/N=C1/CC2C=CCC12)c1ccc(Br)o1 (centres undefined),inconclusive: -12.8%,–
Cc1onc(-c2cccc(Cl)c2Cl)c1C(=O)O/N=C(\N)c1ccc([N+](=O)[O-])o1,inactive: 1.65%,–
CCOC(=O)C(=CNc1ccc(-c2ccco2)c(Cl)c1)C(=O)OCC,inconclusive: -7.41%,–
O=S(=O)(NC1CCCCC1N1CCC(O)CC1)c1ccc(Cl)cc1 (centres undefined),inconclusive: 5.34%,–
COC(=O)C(C(C)=O)C1=C/C(=N\S(=O)(=O)c2ccc(C)cc2)c2ccccc2C1=O (centres undefined),inconclusive: -23.7%,–
CCC(NC(=O)c1ccc2nc(Cc3ccc(OC)cc3)oc2c1)c1ccncc1 (centres undefined),inactive: -3.05%,–
COc1ccc(OC)c(NC(=O)COC(=O)/C=C/c2c(C)nn(C3CCS(=O)(=O)C3)c2Cl)c1 (centres undefined),inconclusive: 5.39%,–
COc1ccc(C(C)(C)C)cc1NC(=O)COc1ccc(-c2nnco2)cc1,inconclusive: -0.658%,–
CC[C@H](C)/C=C(C)/C=C/C1=CC2=CC(=O)[C@]3(C)OC(=O)[C@@H](C(C)=O)[C@@H]3C2=CO1,inactive: -3.79%,–
CC(=O)c1cccc(NC(=O)C(Sc2ncnc3ccccc23)c2ccccc2)c1 (centres undefined),inconclusive: -5.71%,–
S=C1NCN(Cc2cccnc2)CN1c1cccc2ccccc12,inconclusive: -0.974%,–
Cc1onc(-c2ccccc2Cl)c1C(=O)Nc1cnn(Cc2ccccc2)c1,inconclusive: 0.597%,–
CCOc1ccc(NC(=O)CN(C)C(=O)CCN2C(=O)C3CC=CCC3C2=O)cc1OCC (centres undefined),inconclusive: 3.35%,–
CCOC(=O)c1sc(Nc2ccc(C)cc2C)nc1C,–,"inconclusive: 0.651 µM [rising, partial curve, poor fit]"
CCCC(Oc1ccc(Br)cc1)c1nc2c3cc(OC)c(OC)cc3nc(=S)n2[nH]1 (centres undefined),inconclusive: 1.49%,–
O=C(c1ccc(-c2ccccc2)cc1)N1CCN(c2ccccc2F)CC1,inconclusive: -7%,–
COC(=O)N/N=C/c1cn(CCOc2ccccc2OC)c2ccccc12,inactive: -8.47%,–
CCCn1c(C)cc(C(=O)CSc2nc3ccccc3c(=O)n2Cc2ccco2)c1C,inactive: 0.27%,–
O=C(O)CSc1nnc(-c2ccc3c(c2)OCO3)o1,–,"inconclusive: 8.2 µM [falling, partial curve]"

# Part of the list above, reformatted.
SMILES | activity change, negative = inhibition | Potency
O=C(N/N=C1/CC2C=CCC12)c1ccc(Br)o1 (centres undefined) | inconclusive: -12.8% | –
CCOC(=O)C(=CNc1ccc(-c2ccco2)c(Cl)c1)C(=O)OCC | inconclusive: -7.41% | –
CCC(NC(=O)c1ccc2nc(Cc3ccc(OC)cc3)oc2c1)c1ccncc1 (centres undefined) | inactive: -3.05% | –
COc1ccc(C(C)(C)C)cc1NC(=O)COc1ccc(-c2nnco2)cc1 | inconclusive: -0.658% | –
CC[C@H](C)/C=C(C)/C=C/C1=CC2=CC(=O)[C@]3(C)OC(=O)[C@@H](C(C)=O)[C@@H]3C2=CO1 | inactive: -3.79% | –
O=C(c1ccc(-c2ccccc2)cc1)N1CCN(c2ccccc2F)CC1 | inconclusive: -7% | –

# Additional entries follow.

SMILES,"activity change, negative = inhibition",Potency
O=C(O)c1c(F)c(F)c(F)c(F)c1-c1ccc(Cl)cc1,inconclusive: 0.477%,–
CN(CC(=O)Nc1ccc(F)cc1)C(=O)COC(=O)CNC(=O)c1sc2ccccc2c1Cl,inconclusive: -12.9%,–
Cc1nc(SCC(=O)N(CC(C)C)C2CCS(=O)(=O)C2)c(C#N)c(C)c1C (centres undefined),inactive: 0.236%,–
CC(=O)c1csc(COc2cc(Cl)cc(Cl)c2)n1,inconclusive: -11.4%,–
CCOC(=O)c1cccc(NC(=O)CS(=O)(=O)Cc2nc(-c3cccc(OC)c3)oc2C)c1,inactive: -6.31%,–
CCCCNC(=O)CSc1nc2cc3c(cc2c(=O)n1CCCC(=O)NCc1ccc2c(c1)OCO2)OCO3,inactive: 3.24%,–
Cc1cc(C(=O)NCc2ccco2)sc1C,inconclusive: -7.37%,–
CCOC(=O)N1CCC(c2cc(=O)n3[nH]c(-c4ccccc4)cc3n2)CC1,inconclusive: -15.5%,–
N/C(=N\O)c1cn(Cc2ccccc2Cl)c2ccccc12,inactive: -4.03%,–
Cn1c(SCC(=O)c2ccc3c(c2)NC(=O)CO3)nc2ccccc21,inconclusive: -28.9%,–
CN(C)C(=O)N(CCCN1CCOCC1)Cc1cccc2ccccc12,inactive: -18%,–
Cc1noc(C)c1COc1ccc(C(=O)N2CCN(S(=O)(=O)c3ccccc3)CC2)cc1,inconclusive: -6.46%,–
NCCCC[C@H](NC(=O)C1CCNCC1)c1nnc([C@@H](N)Cc2ccc(O)cc2)o1,–,"inconclusive: 8.91 µM [falling, partial curve, poor fit]"
O=C(Nc1cccc(C(F)(F)F)c1)C(=O)N1CCCCC1,–,"inconclusive: 35.5 µM [falling, single point]"
COC(=O)c1cc(C#N)c(SCc2ccccc2)nc1C,inconclusive: 12.4%,–
CCC(O)(CC)C(=O)NN(C(=O)CCl)c1ccccc1,inconclusive: -19%,–
CCCCc1cc(=O)oc2cc(C)cc(OCC(=O)Nc3cccnc3)c12,inconclusive: -5.71%,–
CCCC(=O)N1CCN(c2nnc(-c3ccccc3)c3ccccc23)CC1,inactive: 5.01%,–
CC1(C)N=C(SCC(=O)Nc2ccc(Cl)cc2)C(c2ccccc2)=N1,–,"inconclusive: 18.4 µM [falling, single point]"
O=C(OCC(=O)N1CCc2ccccc21)c1c2c(nc3ccccc13)CCCC2,inconclusive: -13.4%,–
O=C(O)c1cc(Cl)ccc1OS(=O)(=O)c1ccc(Cl)s1,–,"inconclusive: 23.1 µM [falling, single point]"

SMILES,"activity change, negative = inhibition",Potency
O=C(N/N=C/c1cccs1)C1COc2ccccc2O1 (centres undefined),–,"inconclusive: 2.59 µM [rising, full curve, poor fit]"
NC(=O)C1(N2CCCCC2)CCN(C(=O)CSc2nc(C(F)(F)F)cc(=O)[nH]2)CC1,inconclusive: 10.4%,–
O=c1c(Cl)c(N2CCCCC2)cnn1-c1nc2ccccc2[nH]1,–,"inconclusive: 5.62 µM [rising, partial curve]"
O=C(OCc1cc(=O)n2ccsc2n1)C1(c2ccc(Cl)cc2)CC1,inactive: -0.535%,–
CC1=NN(C(=O)Cc2ccc([N+](=O)[O-])cc2)C(O)(c2ccccc2)C1 (centres undefined),inactive: 3.95%,–
CN1CCN(c2ncnc3c2cnn3-c2ccc(Cl)cc2)CC1,inactive: 11.3%,–
O=[N+]([O-])c1cccc(-c2ccc(/C=N/NC(=S)Nc3cccc(F)c3)o2)c1,inactive: 4.19%,–
O=[N+]([O-])c1cccc(/C=N/N2CCN(c3ccccn3)CC2)c1,inconclusive: 16.3%,–
O=C(COC(=O)C1CCN(S(=O)(=O)c2cccs2)CC1)Nc1ccc(F)c(F)c1F,inactive: 2.56%,–
Nc1nc(NCc2ccco2)nn1-c1ccccc1,inconclusive: -15.9%,–
CCCSc1cc(N2CCN(C)CC2)nc(-c2ccc(OC)cc2)n1,–,"inconclusive: 8.2 µM [falling, single point]"
Cc1cc(NC(=O)Nc2ccc(Cl)c(Cl)c2)n(-c2ccccc2)n1,–,"inconclusive: 35.5 µM [falling, single point]"
COc1cc(-c2cc(C(=O)Nc3cccc(C(C)=O)c3)c3ccccc3n2)cc(OC)c1OC,inactive: -1.91%,–
O=C(c1ccc(Cn2c(=O)[nH]c3ccsc3c2=O)cc1)N1CCN(c2ccccc2)CC1,inconclusive: -0.37%,–
CC12CCC(C(=O)NNc3ccccc3)(C(=O)C1=O)C2(C)C (centres undefined),inactive: 4.42%,–
CC1=NNC(=O)/C1=C\c1cn(-c2ccccc2)nc1-c1ccccc1,inconclusive: 13.5%,–
Cc1nn(-c2ccccc2)c(N2CCCC2)c1/C=N/NC(=O)c1ccccc1O,–,"inconclusive: 18.4 µM [falling, single point]"
COc1ccc(-c2noc(CN(C(=O)c3ccc4c(c3)OCO4)C(C)C)n2)cc1,inconclusive: -17%,–
Cc1cccc(N2C(=O)N3[C@H]4c5ccccc5OC[C@@H]4[C@@H](c4ccccc4)[C@@]3(C)C2=O)c1,inconclusive: 0.136%,–
c1ccc2c(COn3nnc4ccccc43)cccc2c1,inconclusive: 2.27%,–
O=C(c1cccs1)c1coc2ccc(O)c(CN(CCO)CCO)c12,–,"inconclusive: 29.1 µM [falling, single point]"

# Reference: PubChem BioAssay AID493014 (National Center for Advancing Translational Sciences (NCATS), 2011)
